The text below walks through data of publication PMC10613289.

By UniProt entry, the sequences of proteins in these tests, tags left out.
UniProt O00425, whole entry: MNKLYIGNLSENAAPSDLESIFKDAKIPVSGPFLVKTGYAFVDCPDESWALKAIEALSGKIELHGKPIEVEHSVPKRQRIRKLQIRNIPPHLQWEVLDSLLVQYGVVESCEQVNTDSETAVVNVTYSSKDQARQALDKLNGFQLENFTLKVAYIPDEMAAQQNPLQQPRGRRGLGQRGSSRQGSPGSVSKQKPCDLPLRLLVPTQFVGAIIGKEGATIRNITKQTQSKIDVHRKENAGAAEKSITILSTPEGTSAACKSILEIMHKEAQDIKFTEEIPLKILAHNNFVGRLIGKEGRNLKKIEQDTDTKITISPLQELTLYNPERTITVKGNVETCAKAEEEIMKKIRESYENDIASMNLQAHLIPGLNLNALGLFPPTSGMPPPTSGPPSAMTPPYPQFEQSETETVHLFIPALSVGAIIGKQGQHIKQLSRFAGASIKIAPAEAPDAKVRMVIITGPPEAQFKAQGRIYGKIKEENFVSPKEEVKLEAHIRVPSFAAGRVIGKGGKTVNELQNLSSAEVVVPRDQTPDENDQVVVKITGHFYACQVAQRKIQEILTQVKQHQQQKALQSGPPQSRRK

The target of the data set is IGF2BP3 endogenous (human (A549, SW620, HCT116 cells)) (UniProt O00425). In words: pull-down. The following applies: A549 lysate, protein in an extract, label: 3' biotin.

Construct, isoform or probe ends are uncertain for at least one entry. Results from cells or extracts need not show a direct contact. Negatives hold for the conditions tested.

For the sequence “ACUAGCUGGUGCGACCAUCAGUGAAGAAGA [M2 probe]”, the binding result was “no binding”. As to “ACUCUAAACGGAGCUGCAUUGAGUGCCACC [M1 (M1-WT) probe]”, the binding result is recorded as “binds”.

With “ACUCUAAACGGAGCUGGUAAGAGUGCCACC [M1-mut probe]”, for the setting “'remarkably abolished'”, the binding result is listed as “no binding”.
